# Assay results reported in PMC4373942.
# No constants are given. Whether binding was seen depends on the method and setting. A result given as binding can be weak or reduced; the word gives no strength. Where a sequence is shown, tags or fusion partners need not be part of it. For part of these data: Binding seen in cells or lysates may run through a third protein.
# Biological target: ZmJAZ14 (split-YFP fusion for BiFC) (maize (Zea mays L.))
# Assay: split reporter; BiFC with N- and C-terminal fragments of YFP (pUC-SPYNE, pUC-SPYCE), co-expressed in maize mesophyll protoplasts, 16 h, confocal microscopy
row,binding,Binder
1,binds,"MYB21 (split-YFP fusion for BiFC) (protein, UniProt Q9LK95 1-226) MEKRGGGSSGGSGSSAEAEVRKGPWTMEEDLILINYIANHGDGVWNSLAKSAGLKRTGKSCRLRWLNYLRPDVRRGNITPEEQLIIMELHAKWGNRWSKIAKHLPGRTDNEIKNFWRTRIQKYIKQSDVTTTSSVGSHHSSEINDQAASTSSHNVFCTQDQAMETYSPTPTSYQHTNMEFNYGNYSAAAVTATVDYPVPMTVDDQTGENYWGMDDIWSSMHLLNGN"

# Biological target: ZmJAZ14 (GAL4 DNA-binding domain fusion, pGBK-ZmJAZ14) (maize (Zea mays L.))
# Assay: two-hybrid; GAL-4 based yeast two-hybrid in yeast AH109; pGBK-ZmJAZ14 (bait) with Arabidopsis proteins in pGAD-T7; growth on SD-L-T-A-H against SD/-L-T; serial dilutions from OD600 = 1, 4 days at 28°C
row,binding,Binder
1,binds,"MYB24 (GAL4 activation domain fusion, pGAD-T7) (protein, UniProt Q9SPG9 1-214) MEKRESSGGSGSGDAEVRKGPWTMEEDLILINYIANHGEGVWNSLAKSAGLKRTGKSCRLRWLNYLRPDVRRGNITPEEQLTIMELHAKWGNRWSKIAKHLPGRTDNEIKNFWRTKIQKYIIKSGETTTVGSQSSEFINHHATTSHVMNDTQETMDMYSPTTSYQHASNINQQLNYGNYVPESGSIMMPLSVDQSEQNYWSVDDLWPMNIYNGN"
2,binds,"PAP1 (GAL4 activation domain fusion, pGAD-T7) (protein, UniProt Q9FE25 1-248) MEGSSKGLRKGAWTTEEDSLLRQCINKYGEGKWHQVPVRAGLNRCRKSCRLRWLNYLKPSIKRGKLSSDEVDLLLRLHRLLGNRWSLIAGRLPGRTANDVKNYWNTHLSKKHEPCCKIKMKKRDITPIPTTPALKNNVYKPRPRSFTVNNDCNHLNAPPKVDVNPPCLGLNINNVCDNSIIYNKDKKKDQLVNNLIDGDNMWLEKFLEESQEVDILVPEATTTEKGDTLAFDVDQLWSLFDGETVKFD"
3,binds,"MYB21 (GAL4 activation domain fusion, pGAD-T7) (protein, UniProt Q9LK95 1-226) MEKRGGGSSGGSGSSAEAEVRKGPWTMEEDLILINYIANHGDGVWNSLAKSAGLKRTGKSCRLRWLNYLRPDVRRGNITPEEQLIIMELHAKWGNRWSKIAKHLPGRTDNEIKNFWRTRIQKYIKQSDVTTTSSVGSHHSSEINDQAASTSSHNVFCTQDQAMETYSPTPTSYQHTNMEFNYGNYSAAAVTATVDYPVPMTVDDQTGENYWGMDDIWSSMHLLNGN"
4,binds,"EIL1 (GAL4 activation domain fusion, pGAD-T7) (protein, UniProt Q9SLH0 1-584) MMMFNEMGMYGNMDFFSSSTSLDVCPLPQAEQEPVVEDVDYTDDEMDVDELEKRMWRDKMRLKRLKEQQSKCKEGVDGSKQRQSQEQARRKKMSRAQDGILKYMLKMMEVCKAQGFVYGIIPEKGKPVTGASDNLREWWKDKVRFDRNGPAAIAKYQSENNISGGSNDCNSLVGPTPHTLQELQDTTLGSLLSALMQHCDPPQRRFPLEKGVSPPWWPNGNEEWWPQLGLPNEQGPPPYKKPHDLKKAWKVGVLTAVIKHMSPDIAKIRKLVRQSKCLQDKMTAKESATWLAIINQEEVVARELYPESCPPLSSSSSLGSGSLLINDCSEYDVEGFEKEQHGFDVEERKPEIVMMHPLASFGVAKMQHFPIKEEVATTVNLEFTRKRKQNNDMNVMVMDRSAGYTCENGQCPHSKMNLGFQDRSSRDNHQMVCPYRDNRLAYGASKFHMGGMKLVVPQQPVQPIDLSGVGVPENGQKMITELMAMYDRNVQSNQTPPTLMENQSMVIDAKAAQNQQLNFNSGNQMFMQQGTNNGVNNRFQMVFDSTPFDMAAFDYRDDWQTGAMEGMGKQQQQQQQQQDVSIWF"
5,binds,"GL1 (GAL4 activation domain fusion, pGAD-T7) (protein, UniProt P27900 1-228) MRIRRRDEKENQEYKKGLWTVEEDNILMDYVLNHGTGQWNRIVRKTGLKRCGKSCRLRWMNYLSPNVNKGNFTEQEEDLIIRLHKLLGNRWSLIAKRVPGRTDNQVKNYWNTHLSKKLVGDYSSAVKTTGEDDDSPPSLFITAATPSSCHHQQENIYENIAKSFNGVVSASYEDKPKQELAQKDVLMATTNDPSHYYGNNALWVHDDDFELSSLVMMNFASGDVEYCL"
6,no binding,"AtJAZ7 (GAL4 activation domain fusion, pGAD-T7) (protein, UniProt O64687 1-148) MIIIIKNCDKPLLNFKEMEMQTKCDLELRLLTSSYDSDFHSSLDESSSSEISQPKQESQILTIFYNGHMCVSSDLTHLEANAILSLASRDVEEKSLSLRSSDGSDPPTIPNNSTRFHYQKASMKRSLHSFLQKRSLRIQATSPYHRYR"
7,binds,"RGL1 (GAL4 activation domain fusion, pGAD-T7) (protein, UniProt Q9C8Y3 1-511) MKREHNHRESSAGEGGSSSMTTVIKEEAAGVDELLVVLGYKVRSSDMADVAHKLEQLEMVLGDGISNLSDETVHYNPSDLSGWVESMLSDLDPTRIQEKPDSEYDLRAIPGSAVYPRDEHVTRRSKRTRIESELSSTRSVVVLDSQETGVRLVHALLACAEAVQQNNLKLADALVKHVGLLASSQAGAMRKVATYFAEGLARRIYRIYPRDDVALSSFSDTLQIHFYESCPYLKFAHFTANQAILEVFATAEKVHVIDLGLNHGLQWPALIQALALRPNGPPDFRLTGIGYSLTDIQEVGWKLGQLASTIGVNFEFKSIALNNLSDLKPEMLDIRPGLESVAVNSVFELHRLLAHPGSIDKFLSTIKSIRPDIMTVVEQEANHNGTVFLDRFTESLHYYSSLFDSLEGPPSQDRVMSELFLGRQILNLVACEGEDRVERHETLNQWRNRFGLGGFKPVSIGSNAYKQASMLLALYAGADGYNVEENEGCLLLGWQTRPLIATSAWRINRVE"
8,binds,"GL3 (GAL4 activation domain fusion, pGAD-T7) (protein, UniProt Q9FN69 1-637) MATGQNRTTVPENLKKHLAVSVRNIQWSYGIFWSVSASQSGVLEWGDGYYNGDIKTRKTIQASEIKADQLGLRRSEQLSELYESLSVAESSSSGVAAGSQVTRRASAAALSPEDLADTEWYYLVCMSFVFNIGEGMPGRTFANGEPIWLCNAHTADSKVFSRSLLAKSAAVKTVVCFPFLGGVVEIGTTEHITEDMNVIQCVKTSFLEAPDPYATILPARSDYHIDNVLDPQQILGDEIYAPMFSTEPFPTASPSRTTNGFDQEHEQVADDHDSFMTERITGGASQVQSWQLMDDELSNCVHQSLNSSDCVSQTFVEGAAGRVAYGARKSRVQRLGQIQEQQRNVKTLSFDPRNDDVHYQSVISTIFKTNHQLILGPQFRNCDKQSSFTRWKKSSSSSSGTATVTAPSQGMLKKIIFDVPRVHQKEKLMLDSPEARDETGNHAVLEKKRREKLNERFMTLRKIIPSINKIDKVSILDDTIEYLQELERRVQELESCRESTDTETRGTMTMKRKKPCDAGERTSANCANNETGNGKKVSVNNVGEAEPADTGFTGLTDNLRIGSFGNEVVIELRCAWREGVLLEIMDVISDLHLDSHSVQSSTGDGLLCLTVNCKHKGSKIATPGMIKEALQRVAWIC"
